Results published in EP4470537A1, “COMPOUND FOR USE IN TREATING FIBRODYSPLASIA OSSIFICANS PROGRESSIVA (FOP)” (Queen's University At Kingston, priority 2023, dated 2024).
Entries after “also recorded” stand apart in the source; their conditions may differ.

Experiment: Mapping a therapeutic window (efficacy versus toxicity)
Format: in vivo
Details: result in words; efficacy of 50% or greater versus toxicity, juvenile mouse

Structure (SMILES): CC1(C)CCC(C)(C)c2cc(Cn3cccn3)c(/C=C/c3ccc(C(=O)O)cc3)cc21 [palovarotene, reference compound]
- therapeutic window: no dose of palovarotene which is able to elicit efficacy of 50% or greater, without toxicity; also recorded: no therapeutic window
